Values from PubChem BioAssay AID1224830 (NIAID, 2016)
Screen: 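Regulators of TLR4 signalling towards TNF-alpha in macrophage-like cells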 (primary screen). Cells: human THP-1 monocytic leukaemia cells, TNF dual-luciferase reporter clone, PMA-differentiated to macrophage-like cells. Reagent: siRNA pool against human genes, 50 nM. Duration: LPS for 4 h, given about 3 days after siRNA transfection. Treatment: bacterial LPS (TLR4 ligand), 10 ng/ml. Detection: 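Ratio of firefly to renilla light, scaled to the plate median and expressed as a robust z-score per replicate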. Reading the numbers: TNF reporter robust z-score: higher = stronger TNF reporter response to LPS. Hit rule: 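a well is active when its z-score exceeds 2.8 or falls below -1.5; control wells carry no call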.
The deposit covers about 18,000 reagents; this is an unselected part. Of all reagents, about 2,900 (16%) are marked active. 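Calls are made per well; low scores hint the gene aids the LPS response, high scores that it dampens it.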 Repeated entries: four replicate wells of each siRNA pool.

no.	gene	TNF reporter robust z-score	call
1	DPP10 (dipeptidyl peptidase like 10)	0.96	inactive
2	DPP10 (dipeptidyl peptidase like 10)	0.32	inactive
3	DPP10 (dipeptidyl peptidase like 10)	-0.02	inactive
4	DPP10 (dipeptidyl peptidase like 10)	0.1	inactive
5	STX6 (syntaxin 6)	0.1	inactive
6	STX6 (syntaxin 6)	1.88	inactive
7	STX6 (syntaxin 6)	0.2	inactive
8	STX6 (syntaxin 6)	-0.15	inactive
9	MOCS1 (molybdenum cofactor synthesis 1)	0.1	inactive
10	MOCS1 (molybdenum cofactor synthesis 1)	0.84	inactive
11	MOCS1 (molybdenum cofactor synthesis 1)	0.05	inactive
12	MOCS1 (molybdenum cofactor synthesis 1)	0.56	inactive
13	MGAT5	-0.26	inactive
14	MGAT5	0.67	inactive
15	MGAT5	-0.48	inactive
16	MGAT5	0.65	inactive
17	C14orf39 (chromosome 14 open reading frame 39)	0.39	inactive
18	C14orf39 (chromosome 14 open reading frame 39)	1.12	inactive
19	C14orf39 (chromosome 14 open reading frame 39)	-0.08	inactive
20	C14orf39 (chromosome 14 open reading frame 39)	-0.1	inactive
21	DPEP3 (dipeptidase 3)	-0.74	inactive
22	DPEP3 (dipeptidase 3)	-0.43	inactive
23	DPEP3 (dipeptidase 3)	0.09	inactive
24	DPEP3 (dipeptidase 3)	0	inactive
25	GPR78 (G protein-coupled receptor 78)	-0.62	inactive
26	GPR78 (G protein-coupled receptor 78)	-0.12	inactive
27	GPR78 (G protein-coupled receptor 78)	0.72	inactive
28	GPR78 (G protein-coupled receptor 78)	1.12	inactive
29	RCN2 (reticulocalbin 2)	10.4	active
30	RCN2 (reticulocalbin 2)	-1.25	inactive
31	RCN2 (reticulocalbin 2)	-0.57	inactive
32	RCN2 (reticulocalbin 2)	2.83	active
33	CNEP1R1 (CTD nuclear envelope phosphatase 1 regulatory subunit 1)	-0.99	inactive
34	CNEP1R1 (CTD nuclear envelope phosphatase 1 regulatory subunit 1)	-1.33	inactive
35	CNEP1R1 (CTD nuclear envelope phosphatase 1 regulatory subunit 1)	-0.22	inactive
36	CNEP1R1 (CTD nuclear envelope phosphatase 1 regulatory subunit 1)	-0.83	inactive
37	CNOT2 (CCR4-NOT transcription complex subunit 2)	1.8	inactive
38	CNOT2 (CCR4-NOT transcription complex subunit 2)	0.49	inactive
39	CNOT2 (CCR4-NOT transcription complex subunit 2)	0.99	inactive
40	CNOT2 (CCR4-NOT transcription complex subunit 2)	2.19	inactive
41	OR4N4 (olfactory receptor family 4 subfamily N member 4)	-0.5	inactive
42	OR4N4 (olfactory receptor family 4 subfamily N member 4)	0.76	inactive
43	OR4N4 (olfactory receptor family 4 subfamily N member 4)	1	inactive
44	OR4N4 (olfactory receptor family 4 subfamily N member 4)	0.53	inactive
45	CELA3A (chymotrypsin like elastase 3A)	0.09	inactive
46	CELA3A (chymotrypsin like elastase 3A)	-0.11	inactive
47	CELA3A (chymotrypsin like elastase 3A)	-0.6	inactive
48	CELA3A (chymotrypsin like elastase 3A)	-0.87	inactive
49	ISL1 (ISL LIM homeobox 1)	6.73	active
50	ISL1 (ISL LIM homeobox 1)	0.35	inactive
51	ISL1 (ISL LIM homeobox 1)	-1.06	inactive
52	ISL1 (ISL LIM homeobox 1)	-0.33	inactive
53	EYS (EGF-like photoreceptor maintenance factor)	-0.46	inactive
54	EYS (EGF-like photoreceptor maintenance factor)	0.2	inactive
55	EYS (EGF-like photoreceptor maintenance factor)	-0.5	inactive
56	EYS (EGF-like photoreceptor maintenance factor)	0.19	inactive
57	DEFB128 (defensin beta 128)	0.02	inactive
58	DEFB128 (defensin beta 128)	-0.9	inactive
59	DEFB128 (defensin beta 128)	0.05	inactive
60	DEFB128 (defensin beta 128)	0.72	inactive
61	TNFSF13B (TNF superfamily member 13b)	-0.68	inactive
62	TNFSF13B (TNF superfamily member 13b)	-0.54	inactive
63	TNFSF13B (TNF superfamily member 13b)	-0.48	inactive
64	TNFSF13B (TNF superfamily member 13b)	-0.06	inactive
65	CTNNBIP1 (catenin beta interacting protein 1)	-1.18	inactive
66	CTNNBIP1 (catenin beta interacting protein 1)	-1.36	inactive
67	CTNNBIP1 (catenin beta interacting protein 1)	-1.12	inactive
68	CTNNBIP1 (catenin beta interacting protein 1)	-0.79	inactive
69	TBX21 (T-box transcription factor 21)	-0.1	inactive
70	TBX21 (T-box transcription factor 21)	0.63	inactive
71	TBX21 (T-box transcription factor 21)	0.3	inactive
72	TBX21 (T-box transcription factor 21)	0.86	inactive

18 successive reagents from above, quoted:
no.	gene	TNF reporter robust z-score	call
13	MGAT5	-0.26	inactive
14	MGAT5	0.67	inactive
15	MGAT5	-0.48	inactive
16	MGAT5	0.65	inactive
17	C14orf39 (chromosome 14 open reading frame 39)	0.39	inactive
18	C14orf39 (chromosome 14 open reading frame 39)	1.12	inactive
19	C14orf39 (chromosome 14 open reading frame 39)	-0.08	inactive
20	C14orf39 (chromosome 14 open reading frame 39)	-0.1	inactive
21	DPEP3 (dipeptidase 3)	-0.74	inactive
22	DPEP3 (dipeptidase 3)	-0.43	inactive
23	DPEP3 (dipeptidase 3)	0.09	inactive
24	DPEP3 (dipeptidase 3)	0	inactive
25	GPR78 (G protein-coupled receptor 78)	-0.62	inactive
26	GPR78 (G protein-coupled receptor 78)	-0.12	inactive
27	GPR78 (G protein-coupled receptor 78)	0.72	inactive
28	GPR78 (G protein-coupled receptor 78)	1.12	inactive
29	RCN2 (reticulocalbin 2)	10.4	active
30	RCN2 (reticulocalbin 2)	-1.25	inactive

Continued.
no.	gene	TNF reporter robust z-score	call
73	EHMT1 (euchromatic histone lysine methyltransferase 1)	-1.71	active
74	EHMT1 (euchromatic histone lysine methyltransferase 1)	-1.8	active
75	EHMT1 (euchromatic histone lysine methyltransferase 1)	-1.97	active
76	EHMT1 (euchromatic histone lysine methyltransferase 1)	-1.58	active
77	ATG4A (autophagy related 4A cysteine peptidase)	-0.49	inactive
78	ATG4A (autophagy related 4A cysteine peptidase)	-0.07	inactive
79	ATG4A (autophagy related 4A cysteine peptidase)	0.06	inactive
80	ATG4A (autophagy related 4A cysteine peptidase)	0.87	inactive
81	ANAPC5 (anaphase promoting complex subunit 5)	0.07	inactive
82	ANAPC5 (anaphase promoting complex subunit 5)	1.43	inactive
83	ANAPC5 (anaphase promoting complex subunit 5)	0.58	inactive
84	ANAPC5 (anaphase promoting complex subunit 5)	-0.51	inactive
85	HACD2 (3-hydroxyacyl-CoA dehydratase 2)	0.33	inactive
86	HACD2 (3-hydroxyacyl-CoA dehydratase 2)	1.15	inactive
87	HACD2 (3-hydroxyacyl-CoA dehydratase 2)	0.44	inactive
88	HACD2 (3-hydroxyacyl-CoA dehydratase 2)	0.1	inactive
89	NOMO1 (NODAL modulator 1)	0.33	inactive
90	NOMO1 (NODAL modulator 1)	1.35	inactive
91	NOMO1 (NODAL modulator 1)	-0.75	inactive
92	NOMO1 (NODAL modulator 1)	0.17	inactive
93	TUBA3D (tubulin alpha 3d)	7.38	active
94	TUBA3D (tubulin alpha 3d)	1.37	inactive
95	TUBA3D (tubulin alpha 3d)	-0.06	inactive
96	TUBA3D (tubulin alpha 3d)	1.04	inactive
97	CERS6 (ceramide synthase 6)	0.26	inactive
98	CERS6 (ceramide synthase 6)	0.72	inactive
99	CERS6 (ceramide synthase 6)	0.86	inactive
100	CERS6 (ceramide synthase 6)	0.91	inactive
101	CBS (cystathionine beta-synthase)	0.65	inactive
102	CBS (cystathionine beta-synthase)	1.13	inactive
103	CBS (cystathionine beta-synthase)	0.93	inactive
104	CBS (cystathionine beta-synthase)	0.27	inactive
105	ANKS1A (ankyrin repeat and sterile alpha motif domain containing 1A)	0.94	inactive
106	ANKS1A (ankyrin repeat and sterile alpha motif domain containing 1A)	-0.65	inactive
107	ANKS1A (ankyrin repeat and sterile alpha motif domain containing 1A)	-0.94	inactive
108	ANKS1A (ankyrin repeat and sterile alpha motif domain containing 1A)	-1.28	inactive
109	NDEL1 (nudE neurodevelopment protein 1 like 1)	3.41	active
110	NDEL1 (nudE neurodevelopment protein 1 like 1)	1.16	inactive
111	NDEL1 (nudE neurodevelopment protein 1 like 1)	-0.26	inactive
112	NDEL1 (nudE neurodevelopment protein 1 like 1)	0.27	inactive
